Results reported in article PMC8666665.
These are yes or no findings as the source states them, for the method shown. In cells and extracts the contact can be indirect. Here binding means that the protein was enriched with, or labelled near, the bait; the list need not be complete. No binding means not detected with the bait.

Target: CD95(1–175)-BirA (human)
Test: proximity labelling; BioID in CD95 k.o. HEK/293T cells reconstituted with CD95-BirA constructs, streptavidin pull-down, immunoblotting

B1: Kip1 ubiquitination-promoting complex protein 2 (KPC2), endogenous in HEK/293T (protein, UniProt Q9BSL1 1-405)
chain: MFVQEEKIFAGKVLRLHICASDGAEWLEEATEDTSVEKLKERCLKHCAHGSLEDPKSITHHKLIHAASERVLSDARTILEENIQDQDVLLLIKKRAPSPLPKMADVSAEEKKKQDQKAPDKEAILRATANLPSYNMDRAAVQTNMRDFQTELRKILVSLIEVAQKLLALNPDAVELFKKANAMLDEDEDERVDEAALRQLTEMGFPENRATKALQLNHMSVPQAMEWLIEHAEDPTIDTPLPGQAPPEAEGATAAASEAAAGASATDEEARDELTEIFKKIRRKREFRADARAVISLMEMGFDEKEVIDALRVNNNQQNAACEWLLGDRKPSPEELDKGIDPDSPLFQAILDNPVVQLGLTNPKTLLAFEDMLENPLNSTQWMNDPETGPVMLQISRIFQTLNRT
  binding: no binding
